Test results: PubChem BioAssay AID504834 (National Center for Advancing Translational Sciences (NCATS), 2011)
Among all 320,000 compounds or so, about 22,000 (6.9%) were called active. The shares of active, inactive and inconclusive entries below differ from those in the screen. Calls follow the shape of the dose curve; as a rule, active = well fitted inhibition curve with a large enough effect; inconclusive = small, poorly fitted or top-dose-only effect, or another doubt; inactive = no such curve, though single readings can be large or run the other way. Where the call is inconclusive, the potency comes from a doubtful curve fit.
% is scaled to controls: 0 for no effect and ±100 for the full control effect; potency is read from the fitted curve at half-maximal effect.

Assay: Primary qHTS for delayed death inhibitors of the malarial parasite plastid, 96 hour incubation
Settings: P. falciparum luciferase reporter growth; series mostly up to 28.7 µM; activity change, negative = inhibition: at the top concentration
In short: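 Delayed-death screen, second-generation endpoint: infected erythrocytes, 2% hematocrit, 0.05% parasitemia final; 96 hours at 37 C, 5% CO2; luciferase detection reagent; luminescence decrease equals reduced growth.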
With `O=C(N/C(=C\c1ccco1)C(=O)N1CCOCC1)c1ccccc1Cl` the Potency was inconclusive: 3.7 µM [inhibitor, full curve].
With `COc1ccc(NS(=O)(=O)c2ccc(N3CCCC3=O)cc2)cn1` the Potency was inconclusive: 4.15 µM [inhibitor, partial curve, poor fit].
For `COc1cc2ccccc2cc1C(=O)Nc1nccs1`, the “activity change, negative = inhibition” value was inactive: 78.1%.
For `CC1Nc2ncnc(N3CCN(c4ccccc4)CC3)c2N(Cc2ccccc2)C1=O` (stereo not given), the Potency was inconclusive: 13.1 µM [inhibitor, single point].
For `O=C(Cc1ccccc1Cl)Nc1ccc(S(=O)(=O)Nc2nccs2)cc1`, the Potency was inconclusive: 18.5 µM [inhibitor, single point].
For `O=C(CN1CCCC1)Nc1ccc(NC(=O)Nc2ccccc2Cl)cc1`, the Potency was inconclusive: 14.7 µM [inhibitor, single point].
With `Cc1ccc(C)c(S(=O)(=O)N2CCCCC2CCNC(=O)C(=O)NCc2ccccc2)c1` (stereo not given) the Potency was inconclusive: 10.4 µM [inhibitor, single point].
In the case of `O=S(=O)(Nc1ccon1)c1ccc(Br)cc1`, the Potency is reported as inconclusive: 9.28 µM [inhibitor, partial curve, poor fit].
In the case of `CC(C)N(CCCNC(=O)Cn1ncc2c([nH]c3ccccc32)c1=O)Cc1ccccc1`, the Potency is reported as inconclusive: 18.5 µM [inhibitor, single point].
With `COc1ccccc1NS(=O)(=O)c1ccc(-c2cc(C)no2)s1` the “activity change, negative = inhibition” value was inactive: -3.56%.
With `CC(NC(=O)c1cccc(S(=O)(=O)N2CCc3ccccc3C2)c1)c1ccco1` (stereo not given) the Potency was inconclusive: 3.7 µM [inhibitor, single point].
With `COc1ccc(-n2nc(C(=O)NCC(=O)NC3CCCCCC3)c3ccccc3c2=O)c(OC)c1` the Potency was inconclusive: 11.7 µM [inhibitor, partial curve].
For `CN1CCN(C(=O)CSc2nnc(COc3ccccc3)o2)CC1`, the Potency was inconclusive: 10.4 µM [inhibitor, partial curve, poor fit].
In the case of `Cc1cc(C)c(S(=O)(=O)N2CCC3(CC2)OCCN3S(=O)(=O)c2cccs2)c(C)c1`, the Potency is reported as inconclusive: 18.5 µM [inhibitor, single point].
In the case of `CCn1ncc(-c2csc(N)n2)c1C`, the Potency is reported as inconclusive: 5.86 µM [inhibitor, partial curve, poor fit].
For `COc1ccc(C(=O)C2C(c3ccc(-c4ccccc4[N+](=O)[O-])o3)NC(=O)NC2(O)C(F)(F)F)cc1` (stereo not given), the Potency was inconclusive: 9.28 µM [inhibitor, single point].
With `O=C(COc1ccccc1)N1CCN(c2ccc([N+](=O)[O-])c(N3CCCCC3)c2)CC1` the Potency was inconclusive: 13.1 µM [inhibitor, single point].
In the case of `CN1CCN(Cc2c(O)ccc3cc(Br)ccc23)CC1`, the Potency is reported as inconclusive: 16.5 µM [inhibitor, single point].
For `Cc1cccc(NS(=O)(=O)c2ccc(C(=O)NCCCN3CCCC3=O)cc2)c1C`, the Potency was inconclusive: 6.57 µM [inhibitor, partial curve, poor fit].
In the case of `CN(C)S(=O)(=O)c1cccc(NC(=O)Cc2ccsc2)c1`, the “activity change, negative = inhibition” value is reported as inactive: 44.5%.
With `CC(=O)Nc1ccc(S(=O)(=O)Nc2ccc(-n3cnnn3)cc2)cc1` the Potency was inconclusive: 0.117 µM [inhibitor, full curve, poor fit].
In the case of `COc1ccc(-n2nnnc2SCC#CCO)cc1`, the Potency is reported as active: 0.465 µM.
In the case of `S=C(NCCCc1ccccc1)NC1CCCCC1`, the “activity change, negative = inhibition” value is reported as inactive: -1.11%.
For `CC1=CC2=NC(=O)CC(C)(C(=O)N(CC(=O)NC3CCCC3)c3cc(C)cc(C)c3)N2C=C1` (stereo not given), the Potency was inconclusive: 14.7 µM [inhibitor, single point].
In the case of `Cc1ccc(S(=O)(=O)N2CCC(C(=O)OC(C)C(=O)NCc3ccccc3)CC2)cc1C` (stereo not given), the Potency is reported as inconclusive: 16.5 µM [inhibitor, single point].
For `Cc1cccc(C)c1NC(=O)CCCSc1nnc(N)s1`, the Potency was inconclusive: 10.4 µM [inhibitor, partial curve, poor fit].
With `CC(C)=C1C2C=CC1C(C(=O)Nc1cc(C)ccc1C)C2C(=O)O` (stereo not given) the Potency was inconclusive: 13.1 µM [inhibitor, partial curve].
In the case of `N=C1C(c2nc3ccccc3c(=O)[nH]2)=C(O)CN1c1ccccc1`, the Potency is reported as inconclusive: 1.47 µM [inhibitor, full curve].
In the case of `COC(=O)c1ccc(NC(=O)C23CC4CC(C2)CC(n2cnc(Cl)n2)(C4)C3)cc1`, the Potency is reported as inconclusive: 8.28 µM [inhibitor, partial curve, poor fit].
For `COc1cc(C2Nc3cc(Cl)c(S(N)(=O)=O)cc3S(=O)(=O)N2)cc(OC)c1OC` (stereo not given), the “activity change, negative = inhibition” value was inactive: -14.8%.
For `CC(=O)c1cc(-c2ccccc2)n(CC(=O)Nc2ccc(C)c(C)c2)c1C`, the Potency was inconclusive: 0.037 µM [inhibitor, full curve, poor fit].
For `COc1cc2nc(CN3CCN(S(=O)(=O)c4ccc(Cl)cc4)CC3)[nH]c(=O)c2cc1OC`, the Potency was inconclusive: 18.5 µM [inhibitor, single point].
With `O=C(N/N=C/c1cc([N+](=O)[O-])ccc1O)c1c[nH]c2ccccc12` the Potency was inconclusive: 18.5 µM [inhibitor, single point].
In the case of `CCOC(=O)N1CCN(CC(O)COc2ccc(-c3ccccc3)cc2)CC1` (stereo not given), the Potency is reported as inconclusive: 4.15 µM [inhibitor, single point].
For `Cc1ccc(Oc2cc(N3CCOCC3)nc(-c3ccccc3)n2)cc1`, the Potency was inconclusive: 0.0928 µM [inhibitor, full curve, poor fit].
In the case of `CCC1(c2ccc(C)cc2)NC(=O)N(C(C)C(=O)Nc2ccc(N3CCOCC3)cc2)C1=O` (stereo not given), the Potency is reported as inconclusive: 7.38 µM [inhibitor, partial curve, poor fit].
In the case of `O=C(NC1CCS(=O)(=O)C1)C12CC3CC(CC(C3)C1)C2` (stereo not given), the Potency is reported as inconclusive: 6.57 µM [inhibitor, partial curve].
In the case of `CC(C)(C)C(=O)COC(=O)c1ccc2c(c1)C(=O)N(Cc1ccco1)C2=O`, the “activity change, negative = inhibition” value is reported as inactive: 12.1%.
For `COc1ccc(CNC(=O)C(=O)NCC2OCCCN2S(=O)(=O)c2cccs2)cc1` (stereo not given), the “activity change, negative = inhibition” value was inactive: 0.306%.
With `Cc1ccccc1NS(=O)(=O)c1cc2c(cc1C)NC(=O)CO2` the Potency was inconclusive: 18.5 µM [inhibitor, single point].
